The values that follow come from publication PMC7787666, “BUB-1 targets PP2A:B56 to regulate chromosome congression during meiosis I in C. elegans oocytes” (eLife, 2020).

These are yes or no findings as the source states them, for the method shown. In cells and extracts the contact can be indirect. Some entries that bind do so weakly or less than the wild type. Where a sequence is shown, tags or fusion partners need not be part of it.

The target of the test is T1, BUB-1::GFP (endogenous, GFP-tagged BUB-1) (C. elegans) (UniProt Q21776).
T1 sequence: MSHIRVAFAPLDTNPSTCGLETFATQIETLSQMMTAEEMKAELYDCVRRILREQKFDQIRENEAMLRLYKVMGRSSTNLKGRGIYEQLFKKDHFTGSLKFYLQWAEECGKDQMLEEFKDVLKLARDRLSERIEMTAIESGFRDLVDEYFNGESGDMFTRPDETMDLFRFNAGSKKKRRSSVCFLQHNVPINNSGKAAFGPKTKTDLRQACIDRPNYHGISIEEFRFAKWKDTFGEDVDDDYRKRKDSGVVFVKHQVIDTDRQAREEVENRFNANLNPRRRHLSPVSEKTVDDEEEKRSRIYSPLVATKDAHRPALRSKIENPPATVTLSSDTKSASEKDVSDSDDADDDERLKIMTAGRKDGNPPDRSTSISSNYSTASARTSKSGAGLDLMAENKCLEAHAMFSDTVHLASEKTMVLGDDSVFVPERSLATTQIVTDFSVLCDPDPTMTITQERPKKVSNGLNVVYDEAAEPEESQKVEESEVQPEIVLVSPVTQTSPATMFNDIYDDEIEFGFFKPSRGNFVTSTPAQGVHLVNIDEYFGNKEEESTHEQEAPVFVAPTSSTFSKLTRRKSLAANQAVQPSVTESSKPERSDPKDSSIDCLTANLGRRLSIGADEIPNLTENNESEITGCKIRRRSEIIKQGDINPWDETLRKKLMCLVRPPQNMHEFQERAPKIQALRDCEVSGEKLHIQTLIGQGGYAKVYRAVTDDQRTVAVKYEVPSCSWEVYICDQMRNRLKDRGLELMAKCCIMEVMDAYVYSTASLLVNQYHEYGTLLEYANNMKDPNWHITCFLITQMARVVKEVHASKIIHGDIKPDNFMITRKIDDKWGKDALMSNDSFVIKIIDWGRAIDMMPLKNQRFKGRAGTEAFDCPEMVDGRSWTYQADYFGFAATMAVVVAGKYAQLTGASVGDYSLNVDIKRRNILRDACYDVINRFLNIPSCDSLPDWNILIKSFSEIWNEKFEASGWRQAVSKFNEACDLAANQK
Nature of the test: co-IP; endogenous BUB-1::GFP immunoprecipitated from C. elegans embryo extracts with a GFP nanobody coupled to magnetic beads; washes with 300 mM potassium acetate, 0.1% NP40 at 4°C; eluate on SDS-PAGE, Coomassie staining.

B1: BUB-3 (protein, UniProt Q9XWH0 1-343)
chain: MSTYQAATIVAAPNEFRVPFPPFVQISKVQFQREAGSRLLAASGWDGTCRVYEVGKLGDISEKLVFTHGKPLLTCTFAGYNKVAFGGVDHNVKLADIETGNGTQLGSHALAVRCMEFNPMSSLIVSGGWDSSVKLWDARSYGNGAIESVNVSSSVYAMDVLKHTILVGTKDRKIFMYDSRKLREPLQVRDSPLKYQTRAVQFFPTGEAFVVSSIEGRVAVEYVDQSGEEMMKRKYAFKCHREKDTDGTELIHPVHTVAFHPKYGTFATGGADGIVNIWDPFNRKRIIQLHKFETSISSLSFNEDGSQLAIATSYQYEKEIDPSPLPNNSITIRHITDPESRPK
B1: the binding entry is “binds”.
